# Measurements taken from PubChem BioAssay AID1508600 (Functional Genomics Laboratory (NCATS/FGL), 2020).
# Among all 53,000 sequences or so, about 3,700 (7%) were called active.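 The calls were made as follows: active = gene knockdowns whose robust z-score for IL-1 alpha signal is at least 2 or at most -2, so actives lie on both sides; inactive = the rest.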 Some of the results follow.
# Experiment: Components of the Cytosolic LPS Sensing Pathway: Gene Identification via Genome-wide siRNA Screen;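 also: robust z of the log signal after scaling to non-targeting control siRNA wells of the plate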
# Settings: RAW264.7 macrophages, IL-1a HTRF, actives lie on both sides, screened at 100 nM (by protocol), cells primed 5 h with Pam3CSK4 first
# How it was run: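 IL-1a HTRF of supernatants after 24 hour LipidA transfection of Pam3CSK4-primed (5 hours) RAW264.7 cells, 48h post-siRNA transfection (100 nM). Scores: percent of plate negative-control median, then log-based robust z-score.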
row,Sequence,z-score
1,CCUUUGUGCAAUGCUACACTT against Actl11,inactive: 0.244
2,GCUUAAGCAGAAUGGUGCUTT against Arid3b,inactive: 0.329
3,GGAGACAAAUAUGAUGUAUTT against Hook1,inactive: -0.507
4,GGAACCUGAUCCACUACUATT against H2-Bl,inactive: -0.407
5,GCCACACCAAUAGAAGUGUTT against Csnk1g3,active: -2.42
6,GCCGAAAUUGUGUCUCUGUTT against Insig1,inactive: 0.167
7,GGAAAUAAGACUCAGGUCATT against Gtf2a1,inactive: 0.749
8,GGUAAGCUAAAUGAAAUGGTT against Rbbp8,inactive: -0.134
9,GGCCUUCAAGGUAUUCGACTT against Cabp7,inactive: -0.98
10,GGAUCCCAUUAGAAAGAAATT against Cbx2,inactive: 0.316
11,CCCAUGAACAUUCCCUUAATT against Prdx1,inactive: -0.373
12,GGAUAAAGGCAAAGACAAATT against Rsrc1,inactive: 0.891
13,GGAGAAGCAAACUGCACCUTT against Cacng6,inactive: 1.08
14,GGUGUAGCUCUUGAUUAAUTT against Icmt,inactive: 1.27
15,GCUUCAUAUAGACAAAGCCTT against Epo,inactive: -0.625
16,CCAUUCCUGGAGAUGGUUGTT against 5031410I06Rik,inactive: -0.0791
17,CCCUGAACGCAUCACUAUCTT against Nlgn2,inactive: -0.773
18,GGUUGAAAAGUAUCAAAGATT against Pus7l,inactive: -0.359
19,GGACCUUCUUUGAACAUAATT against Eno4,inactive: -0.144
20,GGCUCAGUACUUUCUAAAATT against Vmn1r72,inactive: -0.637
21,GGAGAUACGGGACAGAGUGTT against Olfr655,inactive: -0.181
22,GGAACCAGAGACAUUGUUUTT against Pola2,inactive: 1.62
23,GGCCAUCAGAGCUACACUUTT against Gpa33,inactive: 0.806
24,GGAUUGGAGGUCUUAAAACTT against Mbtps1,inactive: -0.303
25,GCCCGGAAGUUUGUUAAAGTT against Mtrr,inactive: -1.46
26,GGAGAAUAUCCUCCCAGGATT against Cdca2,inactive: -0.139
27,GCUUGACUUUGAAAGUCCATT against Gm11733,inactive: -1.54

# 4 entries picked at random from those above, as already listed:
row,Sequence,z-score
23,GGCCAUCAGAGCUACACUUTT against Gpa33,inactive: 0.806
8,GGUAAGCUAAAUGAAAUGGTT against Rbbp8,inactive: -0.134
3,GGAGACAAAUAUGAUGUAUTT against Hook1,inactive: -0.507
15,GCUUCAUAUAGACAAAGCCTT against Epo,inactive: -0.625

# Following part:

row,Sequence,z-score
1,GGUGAUCGAGGAGAGUCUATT against Oaf,inactive: -0.737
2,GGGCACCUAGUUUCCAUGATT against Cox7b,inactive: -0.385
3,GGACCUAAAAAUGGUAUAUTT against Lrp1b,inactive: -0.511
4,GGUAAUGACAACUAUAGAGTT against Tspan6,inactive: -0.26
5,GGAGGGAUAUGGAAACAAGTT against Zfp866,inactive: 0.989
6,GGAACAAAUGUUCGAAAUGTT against Eif4a2,inactive: -0.0347
7,GGACAUGAUUUUAUGCUUCTT against Zkscan17,inactive: 0.446
8,CCGUGAAAAAAUUAAACAGTT against Slk,inactive: 0.338
9,GGAUUCUCACCAAAUACUUTT against Oprd1,inactive: 0.305
10,UCCGUUGGAGUAUCGAUGUTT against Trp53rka,inactive: -1.25
11,GGAGCAGAUGCUAACUGUGTT against Zscan2,inactive: 1.37
12,GGAAGAUGAAUCAUUACCATT against Mmgt1,inactive: -1.35
13,CCGACGAUUCCUGAAGCUATT against Tada3,inactive: -0.275
14,GGCCUACGAGAGGCAAAAATT against Hnf1a,active: -2.05
15,GGUCGUCCCUCUUUAUGGGTT against Rnf5,inactive: 1.56
16,GGCAAAAAACUGAGAAGAATT against Zfp148,inactive: -1.4
17,GGGUCCUCCCUUUUAAGAGTT against 1700123L14Rik,inactive: 0.415
18,GGAGGUGUUAGAUUUUGACTT against Asrgl1,inactive: -0.295
19,GGAAAUGGAUUUCUUAUGGTT against Cutc,inactive: -0.0561
20,CCCGAUCUAUUGCACAAAUTT against Nxt2,inactive: -1.29
21,GGCCCAAUGAUUACAACAUTT against Vmn1r231,inactive: 0.612
22,CCAACCUAAACCAUGUACATT against Erich5,inactive: -0.515
23,GGCCUGGAUGAAUGAAAAGTT against Gins4,inactive: 0.665
24,CCGGAGCUUACUGGUGACATT against Ccdc116,inactive: 0.539
25,GGAAGUGGUCCACCUGAUCTT against Mms19,inactive: -0.324
26,CCUAGGUGUCACCAUGAACTT against Ssx9,active: 2.02
